The values below come from US6274627A, “Conjugates of dithiocarbamate disulfides with pharmacologically active agents and uses therefor” (Medinox, Inc., priority 1999, dated 2001).

The data set can be described thus: Pharmacokinetics of naproxen in plasma following intravenous administration of PDD-Naproxen or naproxen in rats. It is filed as in vivo. The settings on record: rat, 0.55 mg/kg.

Regarding `COc1ccc2cc([C@H](C)C(=O)O)ccc2c1` [Naproxen, (S)-(+)-methoxy-α-methyl-2-naphthaleneacetic acid, reference compound], the AUC(0-inf) (commonly the area under the concentration-time curve extrapolated to infinity) is 243 ng·h/mL.
